# PubChem BioAssay AID504744 – Drosophila RNAi Screening Center, 2011
# Assay: 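Uncover factors, including feedback loops, that control dAkt activation in fly cells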 (primary screen)
# System: Drosophila Kc167 cells
# Reagent: long dsRNA against Drosophila genes, 250 ng dsRNA per well of a 384-well plate
# Timing: 3 days of knock-down, then overnight serum-free starvation before stimulation
# Challenge: bovine insulin at 387 nM for 10 minutes after 12 h without serum
# Measurement: 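In-cell antibody fluorescence for phospho-dAkt in each well over DNA-dye signal, with log2 residuals expressed as z-scores adjusted for cell count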
# Call rule: 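Under insulin, a gene counts as a hit if the average z-score of two replicates lies above 2.5 or below -2.5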
# In all, the deposit lists about 23,000 reagents; this is an unselected part of those that have a named target and a result. Over the whole deposit, 98 (0.43%) got an active call. 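Only hit calls are given; the phospho-dAkt signals, z-scores and hit direction were not deposited.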 A plus sign joins genes that one reagent is predicted to hit. No sequences are given here.
Gene,dsRNA,activity call
CG3301,DRSC15471,inactive
CG30151,DRSC05888,inactive
lncRNA:CR32730 (long non-coding RNA:CR32730),DRSC22957,inactive
CG33136,DRSC05744,inactive
Ltn1 (Listerin E3 ubiquitin protein ligase 1),DRSC11056,inactive
Ltn1 (Listerin E3 ubiquitin protein ligase 1),DRSC11058,inactive
Gsc (Goosecoid),DRSC00755,inactive
tei (teiresias),DRSC07616,inactive
Frl (Formin-like),DRSC09300,inactive
Frl (Formin-like),DRSC10027,inactive
Frl (Formin-like),DRSC10716,inactive
CG34319 (retired record),DRSC18138,inactive
exd (extradenticle),DRSC20330,inactive
Cog1 (Component of oligomeric golgi complex 1),DRSC15661,inactive
mGluR (metabotropic Glutamate Receptor),DRSC17215,inactive
CG31820,DRSC21318,inactive
Sxl + CG14425 (retired record),DRSC18721,inactive
Sxl + CG14425 (retired record),DRSC18722,inactive
Sxl + CG14425 (retired record),DRSC21490,inactive
CG6418,DRSC10633,inactive
Usp16-45 (Ubiquitin specific protease 16/45),DRSC18352,inactive
CG4324,DRSC04462,inactive
CG14417,DRSC18638,inactive
sol (small optic lobes),DRSC20587,inactive
CG14644,DRSC12230,inactive
CG6414,DRSC18401,inactive
CG31323,DRSC14901,inactive
alpha-Est4aPsi (pseudo),DRSC12473,inactive
otu (ovarian tumor),DRSC18811,inactive
CG3611,DRSC04395,inactive
CG13042,DRSC09923,inactive
CG31199,DRSC15284,inactive
CG12012,DRSC08220,inactive
Rpe (Ribulose-5-phosphate-3-epimerase),DRSC06407,inactive
CG14834,DRSC10204,inactive
CG17734,DRSC15256,inactive
Alp11 (Alkaline phosphatase 11),DRSC20080,inactive
Usp1 (Ubiquitin specific protease 1),DRSC14155,inactive
cDIP (Common Dpr-interacting protein),DRSC14267,inactive
CG14607,DRSC12551,inactive
CG33099,DRSC15774,inactive
CG42656,DRSC12472,inactive
moon (moonshiner),DRSC19497,inactive
hoe2 (hoepel2),DRSC00459,inactive
nrv2 (nervana 2),DRSC00948,inactive
nrv2 (nervana 2),DRSC03383,inactive
Tina-1 (Troponin C-akin-1),DRSC04317,inactive
CG8209,DRSC10970,inactive
wa-cup (walker cup),DRSC12511,inactive
"E(spl)m2-BFM (Enhancer of split m2, Bearded family member)",DRSC16991,inactive
PH4alphaPV (prolyl-4-hydroxylase-alpha PV),DRSC22400,inactive
CG5013,DRSC15695,inactive
CG13476,DRSC10019,inactive
CG31226,DRSC21724,inactive
CG11737,DRSC14364,inactive
bisc (biscotti),DRSC04083,inactive
His4:CG33883 + His4:CG33889 + His4:CG33899 + 20 more,DRSC21268,inactive
CG10904,DRSC04084,inactive
Dll (Distal-less),DRSC04610,inactive
Ir11a (Ionotropic receptor 11a),DRSC19699,inactive
CG32413,DRSC21591,inactive
CG2211,DRSC08559,inactive
CG13551,DRSC21847,inactive
CG1677,DRSC18116,inactive
CG15439,DRSC00453,inactive
CG13877 + pyx,DRSC08347,inactive
alc (alicorn),DRSC07062,inactive
alc (alicorn),DRSC21464,inactive
AsnRS (Asparaginyl-tRNA synthetase),DRSC01990,inactive
wg (wingless),DRSC03636,inactive
Hr38 (Hormone receptor-like in 38),DRSC03345,inactive
CG30187,DRSC22461,inactive
Elba1 (Early boundary activity 1),DRSC00276,inactive
gammaTub23C (gamma-Tubulin at 23C),DRSC00820,inactive
Or65c (Odorant receptor 65c),DRSC21312,inactive
Elk (Eag-like K[+] channel),DRSC07608,inactive
CG1965,DRSC12577,inactive
CG1965,DRSC21828,inactive
qin,DRSC14782,inactive
CG31021,DRSC22319,inactive
Eaf6 (Esa1-associated factor 6),DRSC09901,inactive
CG4927,DRSC06903,inactive
CG12516,DRSC14524,inactive
CG10359,DRSC08156,inactive
CG31253 + CG31131,DRSC13839,inactive
CG13245,DRSC02243,inactive
CG4766,DRSC17736,inactive
CG4318,DRSC19887,inactive
Qsox4 (Quiescin sulfhydryl oxidase 4),DRSC14224,inactive
mRpL21 (mitochondrial ribosomal protein L21),DRSC11100,inactive
CG8929,DRSC07298,inactive
CG8929,DRSC22847,inactive
CR31822 (pseudo),DRSC01510,inactive
Polr3B (RNA polymerase III subunit B),DRSC07536,inactive
Upf3,DRSC04092,inactive
ctrip (circadian trip),DRSC12242,inactive
ctrip (circadian trip),DRSC12287,inactive
ctrip (circadian trip),DRSC22449,inactive
Pp1alpha-96A (Protein phosphatase 1alpha at 96A),DRSC16795,inactive
Ptth (Prothoracicotropic hormone),DRSC00356,inactive
Ask1 (Apoptotic signal-regulating kinase 1),DRSC16789,inactive
Ask1 (Apoptotic signal-regulating kinase 1),DRSC21697,inactive
Brms1 (BRMS1 transcriptional repressor),DRSC19896,inactive
CG14036,DRSC02361,inactive
CG14605,DRSC12549,inactive
sand (sandman),DRSC07245,inactive
CG31548,DRSC22640,inactive
bnl (branchless),DRSC13377,inactive
bnl (branchless),DRSC16913,inactive
CG15125,DRSC06547,inactive
Usp15-31 (Ubiquitin specific protease 15/31),DRSC04426,inactive
Usp15-31 (Ubiquitin specific protease 15/31),DRSC04532,inactive
Kdm5 (Lysine demethylase 5),DRSC03133,inactive
Eig71Ea (Ecdysone-induced gene 71Ea),DRSC11148,inactive
Gr21a (Gustatory receptor 21a),DRSC00366,inactive
CG3085,DRSC04335,inactive
GstO2 (Glutathione S transferase O2),DRSC10691,inactive
Dhfr (Dihydrofolate reductase),DRSC16646,inactive
tn (thin),DRSC05768,inactive
tn (thin),DRSC06532,active
CG32102,DRSC22015,inactive
CG1983,DRSC15410,inactive
Arl5 (ADP-ribosylation factor-like 5),DRSC10785,inactive
CG12911,DRSC06226,inactive
COX5A (Cytochrome c oxidase subunit 5A),DRSC16611,inactive
CG7362,DRSC16236,inactive
Cirl (Calcium-independent receptor for alpha-latrotoxin),DRSC21942,inactive
Schip1 (Schwannomin interacting protein 1),DRSC02851,inactive
koi (klaroid),DRSC04980,inactive
pirk (poor Imd response upon knock-in),DRSC04269,inactive
CG17050 (retired record),DRSC06651,inactive
Obp28a (Odorant-binding protein 28a),DRSC03394,inactive
CG30089,DRSC06126,inactive
CG30089,DRSC06127,inactive
CG30089,DRSC06267,inactive
CG30089,DRSC06268,inactive
CG30089,DRSC21694,inactive
CecC (Cecropin C),DRSC16606,inactive
Klp98A (Kinesin-like protein at 98A),DRSC16724,inactive
Klp98A (Kinesin-like protein at 98A),DRSC21834,inactive
CG14687,DRSC14910,inactive
Treh (Trehalase),DRSC04548,inactive
Spx (Spliceosomal protein on the X),DRSC18720,inactive
CG8249,DRSC07125,inactive
fuss (fussel),DRSC17200,inactive
fuss (fussel),DRSC21452,inactive
Eh (Eclosion hormone),DRSC16660,inactive
Dgk (Diacyl glycerol kinase),DRSC05064,inactive
Dgk (Diacyl glycerol kinase),DRSC05065,inactive
Dgk (Diacyl glycerol kinase),DRSC06171,inactive
Dgk (Diacyl glycerol kinase),DRSC06782,inactive
Dgk (Diacyl glycerol kinase),DRSC22236,inactive
eIF3h (eukaryotic translation initiation factor 3 subunit h),DRSC01995,inactive
BthD (BthD selenoprotein),DRSC19395,inactive
Neu2 (Neuroectoderm-expressed 2),DRSC11819,inactive
CG15571,DRSC18059,inactive
CG8910,DRSC07414,inactive

Quoted from the entries so far for reference:
Gene,dsRNA,activity call
Cirl (Calcium-independent receptor for alpha-latrotoxin),DRSC21942,inactive
Schip1 (Schwannomin interacting protein 1),DRSC02851,inactive
koi (klaroid),DRSC04980,inactive
pirk (poor Imd response upon knock-in),DRSC04269,inactive
CG17050 (retired record),DRSC06651,inactive
Obp28a (Odorant-binding protein 28a),DRSC03394,inactive
CG30089,DRSC06126,inactive
CG30089,DRSC06127,inactive
CG30089,DRSC06267,inactive
CG30089,DRSC06268,inactive
CG30089,DRSC21694,inactive
CecC (Cecropin C),DRSC16606,inactive
Klp98A (Kinesin-like protein at 98A),DRSC16724,inactive
Klp98A (Kinesin-like protein at 98A),DRSC21834,inactive
CG14687,DRSC14910,inactive
Treh (Trehalase),DRSC04548,inactive
Spx (Spliceosomal protein on the X),DRSC18720,inactive
CG8249,DRSC07125,inactive
